Some of the results follow. Shown are side measurements of this screen, not its main read-out; they come without a call. Most of these compounds were active or inconclusive in the main read-out, so they are no random draw. The note in brackets gives the kind of curve behind each potency; many fits are weak.
Test: qHTS Assay for Lipid Storage Modulators in Drosophila S3 Cells;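 as to cell number change: cells counted by Cell Tracker Red CMTPX staining in the red channel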
Conditions: BODIPY lipid droplet fluorescence, 18-24 h; for cell number change: measured here: cell count max response, cells fed with added oleic acid
Summary of the method: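 Drosophila S3 cells got compounds at several concentrations plus oleic acid (400 uM solution). Laser-scanning cytometry with 488 nm excitation read lipid droplets at 500-530 nm and cells at 575-640 nm. Percent activity was relative to 20 uM Triacsin C.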

[1] = measured here: lipid fluorescence (Fed channel) AC50, cells fed with added oleic acid
[2] = measured here: cell number channel AC50, cells fed with added oleic acid

Row | Compound | cell number change [%] | AC50 [1] | AC50 [2]
1 | Cc1ccc(Cl)cc1NC(=O)CCN1C(=O)C2C3CCC(C3)C2C1=O (centres undefined) | -6.23 | 4.11 µM [falling, single point] | –
2 | CC(=O)Cc1nsc(NC(=O)c2cc(-c3cccc(C(F)(F)F)c3)oc2C)n1 | – | 1.64 µM [rising, partial curve] | 1.46 µM [rising, partial curve, poor fit]
3 | COc1cc(/C=N/n2c(COc3ccccc3)n[nH]c2=S)cc(OC)c1OC(C)=O | -1.39 | 4.11 µM [rising, partial curve] | –
4 | Cc1ccc(CN2CCN(Cc3ccc(-n4cccn4)cc3C)CC2CCO)cc1 (centres undefined) | 7.85 | 0.164 µM [rising, full curve, poor fit] | –
5 | Cc1cccc(C)c1N(CC(=O)N(C)Cc1ccccc1)S(C)(=O)=O | 28.5 | 4.11 µM [rising, single point] | 3.66 µM [rising, full curve, poor fit]
6 | Cc1c(CN2CCCC(C)C2)c(O)n(CCO)c(=O)c1C#N (centres undefined) | -12.3 | 0.082 µM [falling, full curve, poor fit] | –
7 | CCOC(=O)C(C#N)=C1CCN(Cc2ccccc2)CC1 | -9.6 | – | 0.00461 µM [falling, full curve, poor fit]
8 | CCOc1ccc(NC(=O)CN(C)C(=O)c2cc(S(=O)(=O)N3CCCCC3)ccc2C)cc1OCC | – | 3.66 µM [rising, single point] | –
9 | COc1cccc(CNC(=O)c2ccc(CS(=O)(=O)Cc3ccccc3C)o2)c1 | -22.1 | 29.1 µM [falling, single point] | –
10 | O=C(CN(c1cc(C(F)(F)F)ccc1Cl)S(=O)(=O)c1ccccc1)NCc1cccnc1 | -17 | – | –
11 | O=C(Nc1ccccc1)C1CCCN1/C=C/C(=O)C(F)(F)F (centres undefined) | 14.7 | 32.6 µM [rising, single point] | –
12 | CC(=O)c1cccc(CN2CCCC(C(=O)Nc3ccc(-c4ccco4)cc3)C2)c1 (centres undefined) | 13.4 | 35.5 µM [rising, single point] | –
13 | COC(=O)c1sccc1NC(=O)c1ccc(Br)o1 | -25.1 | 0.291 µM [rising, partial curve, poor fit] | –
14 | C=CCn1c(C)cc(-c2csc(NC)n2)c1C | -3.25 | 29.1 µM [falling, single point] | –
15 | CCC(C)NC(=O)c1n[nH]c(=O)c2ccccc12 (centres undefined) | -6.04 | 3.26 µM [falling, full curve] | –
16 | CCN(CC)C(=O)N1CCC(NC(=O)c2ccccc2)CC1 | -88.1 | 6.51 µM [falling, partial curve] | 5.8 µM [falling, partial curve]
17 | C=CCn1c(=N)c(C(=O)OCC)cc2c(=O)n3cc(C)ccc3nc21 | -1.75 | 14.6 µM [rising, single point] | –
18 | COc1ccc(CCNC(=O)COC(=O)c2ccc[nH]c2=O)cc1 | – | – | 0.58 µM [falling, single point]
19 | Oc1[nH]c2ccccc2c1N=NC(=S)N1CCOCC1 | -50.9 | 1.84 µM [falling, full curve] | 11.6 µM [falling, partial curve]

Row | Compound | cell number change [%] | AC50 [1] | AC50 [2]
20 | CN(C(=O)COC(=O)c1ccc2c(c1)OCCO2)C1CCCCC1 | – | – | 0.0058 µM [falling, full curve, poor fit]
21 | Cc1cc(C)cc(OCc2ccc(C(=O)N3N=C(C(F)F)CC3(O)C(F)F)o2)c1 (centres undefined) | -33.3 | – | 0.0058 µM [falling, full curve, poor fit]
22 | COc1ccc(NC(=O)C2C3C=CC(C3)C2C(=O)O)cc1 (centres undefined) | -2.56 | – | 1.46 µM [rising, partial curve]
23 | COc1ccc2c(c1)[nH]c(=O)c1sc3ccccc3c12 | -30.4 | 3.26 µM [falling, partial curve, poor fit] | 4.11 µM [falling, full curve, poor fit]
24 | NC(=O)C(Cc1ccccc1)NS(=O)(=O)c1ccc(N2CCCC2=O)cc1 (centres undefined) | 11.9 | 1.16 µM [falling, full curve] | –
25 | CCC(=O)Nc1ccc(NC(=O)c2cccc3c(Br)cccc23)cc1 | 2.47 | 29.1 µM [falling, single point] | –
26 | Cc1ccc(NS(=O)(=O)c2ccc(Cl)c(C(=O)Nc3ccccc3-c3nc4ccccc4[nH]3)c2)cc1C | -31.2 | 29.1 µM [falling, single point] | 2.59 µM [rising, single point]
27 | COCc1c(C(=O)N2CCN(Cc3ccc(C#N)cc3)CC2)oc2ccccc12 | 21.4 | 25.9 µM [falling, single point] | 0.00461 µM [rising, full curve, poor fit]
28 | COC(=O)C(C)(C)ONC(=O)Nc1ccccc1Br | 1.93 | 29.1 µM [rising, single point] | –
29 | COc1ccc(NC(=S)NCCc2ccc(Cl)cc2)c(OC)c1 | 18.3 | – | –
30 | CCCn1c(N)c(C(=O)CSc2nnc3n2CCCCC3)c(=O)n(C)c1=O | -11.2 | 0.517 µM [rising, single point] | –
31 | Cc1ccc(SC2CC(=O)N(c3ccc4c(c3)OCCO4)C2=O)cc1 (centres undefined) | -30 | 31.6 µM [falling, single point] | 25.1 µM [falling, single point]
32 | COC(=O)NNC(=O)COc1ccc2ccccc2c1Br | -50 | – | 29.1 µM [falling, single point]
33 | CNC(=O)C1CC(=O)N(c2ccc(OCC(=O)Nc3ccccc3C)cc2)C1 (centres undefined) | -95.8 | – | 20.6 µM [falling, single point]
34 | COc1ccc2c(C)cc(SCC(=O)Nc3ncc(Cl)cc3Cl)nc2c1 | 11.4 | – | 6.51 µM [rising, single point]
35 | O=C(Nc1ccccc1NC(=O)c1ccccc1F)c1ccccc1F | 6.67 | 29.1 µM [rising, single point] | –
36 | Cc1oc(/N=C/c2cccc([N+](=O)[O-])c2)c(C#N)c1C | – | 0.116 µM [falling, full curve, poor fit] | –
37 | CCOC(=O)c1c(CSC(=N)N)n(-c2ccc(Br)cc2)c2cc(Br)c(OC(C)=O)cc12 | -84.8 | 29.1 µM [falling, single point] | 29.1 µM [falling, single point]
38 | Cc1ccc(-c2nnc3cccc(Cl)n23)cc1 | 16.4 | – | 5.8 µM [rising, partial curve, poor fit]

Reformatted as a markdown table: entries from further up.

| Row | Compound | cell number change [%] | AC50 [1] | AC50 [2] |
| --- | --- | --- | --- | --- |
| 22 | COc1ccc(NC(=O)C2C3C=CC(C3)C2C(=O)O)cc1 (centres undefined) | -2.56 | – | 1.46 µM [rising, partial curve] |
| 25 | CCC(=O)Nc1ccc(NC(=O)c2cccc3c(Br)cccc23)cc1 | 2.47 | 29.1 µM [falling, single point] | – |
| 32 | COC(=O)NNC(=O)COc1ccc2ccccc2c1Br | -50 | – | 29.1 µM [falling, single point] |

The list goes on:

Row | Compound | cell number change [%] | AC50 [1] | AC50 [2]
39 | CC1(C)CC(C(=O)Nc2nccs2)CCO1 (centres undefined) | 4.61 | – | –
40 | COC(=O)C(C)NS(=O)(=O)c1ccc(NC(C)=O)cc1 (centres undefined) | 2.7 | 0.116 µM [falling, full curve, poor fit] | 0.651 µM [falling, single point]
41 | COc1cc(NC(=O)c2ccc(C)cc2C)ccc1NC(=O)c1cccs1 | -7.62 | – | –
42 | CCC(=O)Nc1ccc(C(=O)CSc2nnc(-c3cccnc3)o2)cc1 | – | 7.31 µM [falling, single point] | –
43 | CC(=O)c1ccc(N2CCN(S(=O)(=O)c3cc(-c4cc(C)no4)ccc3C(C)C)CC2)cc1 | -31.5 | 2.31 µM [falling, partial curve, poor fit] | 13 µM [falling, partial curve, poor fit]
44 | O=C(N/N=C/c1cccnc1)c1cc(-c2ccccc2)nc2ccccc12 | 10.4 | 0.517 µM [rising, full curve, poor fit] | –
45 | CCN1CCN(C(=S)c2ccc(OC)cc2)CC1 | -9.54 | 0.103 µM [falling, partial curve, poor fit] | 1.03 µM [rising, full curve, poor fit]
46 | COc1cccc(C2/C(=C(\O)c3ccc4c(c3)OCCO4)C(=O)C(=O)N2c2nnc(C)s2)c1 (centres undefined) | 19.8 | – | 0.13 µM [rising, full curve, poor fit]
47 | Cc1ccc2cc(CCNC(=O)c3ccc(C)c([N+](=O)[O-])c3)c(=O)[nH]c2c1 | -6.97 | – | –
48 | Cc1ccc(NC(=O)CCCN2C(=S)NC(C)(C)CC2C)cc1 (centres undefined) | 43.6 | 29.1 µM [rising, single point] | –
49 | Cc1scc(C(=O)N/N=C/c2ccc(Cl)s2)c1C | 11.7 | 2.91 µM [rising, partial curve] | –
50 | COc1ccc(CC(=O)N2CC(C)CC(C)C2)cc1OC (centres undefined) | – | 5.8 µM [falling, single point] | –
51 | COc1ccc(C(=O)Cc2ccc(OC)c(OC)c2)c(OC)c1 | 5.69 | 3.66 µM [rising, partial curve] | 0.411 µM [rising, full curve]
52 | COc1ccc(C(=O)CSc2nnc(NC(=O)C3CC(=O)N(c4ccccc4C)C3)s2)cc1 (centres undefined) | 4.5 | 0.0259 µM [rising, full curve, poor fit] | –
53 | CC(=O)Nc1cccc(NC(=O)c2c(-c3ccccc3Cl)noc2C)c1 | 26 | 10.3 µM [rising, partial curve] | –
54 | CC(C)N(C(=O)COC(=O)[C@@H]1CC(O)CN1S(=O)(=O)c1ccccc1[N+](=O)[O-])C(C)C (some centres undefined) | -8.22 | 10.3 µM [falling, partial curve] | –
55 | CCc1nnc(NC(=O)C2CCC(CNc3c(N4CCC(C)CC4)c(=O)c3=O)CC2)s1 (centres undefined) | 0.136 | 1.16 µM [falling, full curve] | –
56 | Fc1ccccc1N1CCN(c2nc(-c3cccs3)nc3ccccc23)CC1 | 31 | 2.31 µM [rising, partial curve, poor fit] | 1.03 µM [rising, full curve, poor fit]

— PubChem BioAssay AID2685 (National Center for Advancing Translational Sciences (NCATS), 2010)
